Measurements taken from US20250264455A1.
No constants are given. Whether binding was seen depends on the method and setting. A result given as binding can be weak or reduced; the word gives no strength. Where a sequence is shown, tags or fusion partners need not be part of it.

Molecular target: GFP-tagged receptor GluCl (Drosophila)
Assay: immunohistochemistry of Drosophila brains

binding: binds
B1: QtEnc-antiGFPintrabody (protein)
chain: MNKSQLYPDSPLTDQDFNQLDQTVIEAARRQLVGRRFIELYGPLGRGMQSVFNDIFMESHEAKMDFQGSFDTEVESSRRVNYTIPMLYKDFVLYWRDLEQSKALDIPIDFSVAANAARDVAFLEDQMIFHGSKEFDIPGLMNVKGRLTHLIGNWYESGNAFQDIVEARNKLLEMNHNGPYALVLSPELYSLLHRVHKDTNVLEIEHVRELITAGVFQSPVLKGKSGVIVNTGRNNLDLAISEDFETAYLGEEGMNHPFRVYETVVLRIKRPAAICTLIDPEEGGGGSGPGGSGVQLVESGGALVQPGGSLRLSCAASGFPVNRYSMRWYRQAPGKEREWVAGMSSAGDRSSYEDSVKGRFTISRDDARNTVYLQMNSLKPEDTAVYYCNVNVGFEYWGQGTQVTVSS
